Results taken from patent US7390826B2, “Inhibitors of animal cell motility and growth” (The Board of Trustees of The University of Illinois, priority 2002, dated 2008).
For at least one compound, name, drawing or mass did not settle the structure. Some entries repeat one wording, which the source may state once for all of them.

What follows are compounds tested on Xenopus laevis embryos (assay: frog embryo morphogenesis assay (scoring of developmental defects)). Settings: defective phenotype.
Format: in vivo
Excerpt: In order to identify compounds that specifically perturb morphogenesis in the frog embryo, a suitable method for scoring embryos by characteristic defects was developed. A useful starting point was the “dorso-anterior index” (DAI). The DAI originally was constructed by adding new morphological characteristics to the older “index of axis deficiency” (S. R. Scharf et al., Dev. Biol., 99, 75-87 (1983)). The DAI is a scale of dorsoanterior development wherein embryos are assigned a score based on degree of dorsoanterior phenotype (K. R. Kao et al., Dev. Biol., 127, 64-77 (1988)). The scale encompasses a score of 0 (for the most axis-deficient or ventralized embryos) to 10 (for embryos with the most enhanced dorsoanterior structures), with a score of 5 signifying a normal embryo.
Because the DAI focuses only on dorsoanterior phenotypes, other categories were added to describe possible defects more comprehensively, with an emphasis on characteristics that are easily and unambiguously recognized in intact embryos, and that are diagnostic of possible effects on morphogenesis during gastrulation and neurulation. The most useful and readily scored categories that covered the most frequent deficiencies were: reduced anterior structures and microcephaly, delayed appearance or absence of eye pigmentation, overall shortness along the anteroposterior axis, bent axis, bent tail only, reduced posterior structures/tail, malformed or reduced fins, delayed or failed neural tube closure (neural fold fusion), abnormal pigmentation pattern, ventral swelling (edema), and delayed or abnormal visceral organogenesis and yolk resorption. In addition, blastopore closure, an earlier process that marks the completion of gastrulation, was observed.
In these tests, test compounds were added individually to wells each containing 4-8 embryos in 12-well plates. Embryos at stage 8.5-9, according to the classification of Nieuwkoop and Faber (P. I. Nieuwkoop et al., Normal Table of Xenopus laevis (Daudin). Amsterdam: North-Holland Publ.) (1967)), were used because these are late blastula stages before gastrulation begins at stage 10, which allowed focusing primarily on compounds that affect morphogenetic events in gastrulation and neurulation. These embryos, therefore, have undergone a midblastula transition at stage 8 (cleavage division 12) when zygotic transcription begins (J. Newport et al., Cell, 30, 675-686 (1982); J. Newport et al., Cell, 30, 687-696 (1982)) but have not yet started the morphogenetic movements of gastrulation.
Standard procedures were used in the care of animals, gamete preparation, fertilization of oocytes, and culture of embryos (B. K. Kay et al., Methods in Cell Biology, Volumn 36 (San Diego: Academic Press, Inc.) (1991)). In order to stimulate ovulation, female frogs were injected with 500 units of human chorionic gonadotropin (HCG). Eggs were squeezed from female frogs 12 hours later. Testes were removed from euthanized male frogs that had been primed with 50 units of HCG 4-6 hours earlier. The testes were stored at 4° C. in single strength Marc's Modified Ringer's solution with 50 μg/ml gentamycin and used for no more than 10 days. Small pieces of testes were macerated and spread over eggs for in vitro fertilization in Petri dishes. Fertilized eggs were placed in one-tenth strength Modified Barth's Saline (MBS) with 50 μg/ml gentamycin at constant temperature (19° C.) in a temperature-controlled incubator and development allowed to proceed under these conditions. Embryos were dejellied by briefly swirling them in a solution of 2% (w/v) L-cysteine, pH 8.0. The embryos then were rinsed extensively with one-tenth strength MBS to wash out the cysteine. Experiments were started within an hour of dejellying the embryos.
Experiments were carried out in 12-well flat-bottom polystyrene plates with 4-8 embryos per well in 1.0 ml of one-tenth strength MBS with 50 μg/ml gentamycin at 19° C. […]
With `CC/C=C/C(=O)N1C(=O)OC[C@@H]1Cc1ccccc1` [Compound 13] the “activity in the frog embryo relative to compound 1” value was “reduced activity”.
For `CCCCC/C=C/C(=O)N1C(=O)OC[C@@H]1Cc1ccccc1` [Compound 23], the “activity in the frog embryo relative to compound 1” value was “reduced activity”.
In the case of `O=C(/C=C/c1cccc(F)c1)N1C(=O)OC[C@@H]1Cc1ccccc1` [Compound 33], the “activity in the frog embryo relative to compound 1” value is reported as “reduced activity”.
For `CC(C)=CC(=O)N1C(=O)OC[C@@H]1Cc1ccccc1` [Compound 35], the “activity in the frog embryo relative to compound 1” value was “reduced activity”.
For `O=C(/C=C/c1ccc(O)cc1)N1C(=O)OC[C@@H]1Cc1ccccc1` [Compound 41], the “activity in the frog embryo relative to compound 1” value was “reduced activity”.
`O=C(/C=C/c1cccc(C(F)(F)F)c1)N1C(=O)OC[C@@H]1Cc1ccccc1` [Compound 54] was tested, and the “activity in the frog embryo relative to compound 1” value was “reduced activity”.
With `C/C=C(\C)C(=O)N1C(=O)OC[C@@H]1Cc1ccccc1` [Compound 55] the “activity in the frog embryo relative to compound 1” value was “reduced activity”.
